Not every detail of the peptide structures is certain; ends, links or a residue may be inferred. Where a SMILES comes first, the peptide text is derived from it.
System: human immunodeficiency virus (HIV)
Assay: HIV-induced cell fusion: RH9 cells mixed with HIV-infected lymphoblasts
Type: cell-based
Conditions: for Polykaryocytes Mean Diameter / Polykaryocytes Per mm^2: RH9 + HIV-RH9
Method: The commercially available peptides, carbobenzoxy-D- Phe-L-Phe-Gly (z-PPG) and Phe-Gly-Gly-Phe (PGGP) were obtained from Sigma Chemical Company, St. Louis, MO in granular form. Stock solutions were prepared to 20 mg/ml in dimethyl sulfoxide and stored at 0° C. A line of uninfected human lymphoblasts, RH9, and a line of lymphoblasts persistently infected with human immunodeficiency virus (HIV) were obtained from Dr. Robert Garry of Tulane Medical Center, New Orleans, La. and grown in RPMI medium containing 10% fetal calf serum obtained from Gibco, Grand Island, N.Y.
In the experimental protocol, RH9 cells are pretreated with various concentrations of either z-PPG or PGGP by adding a small aliquot of the peptide/DMSO solution to a suspension culture. After 1 hour, a suspension culture containing one-half the number of HIV-infected cells are added to the RH9-peptide mixture. The mixture is then incubated at 37° C. for 18 hours, and examined periodically for induction of cell fusion in the cell mixture.

N[C@@H](Cc1ccccc1)C(=O)NCC(=O)NCC(=O)N[C@@H](Cc1ccccc1)C(=O)O [PGGP, Phe-Gly-Gly-Phe] (H-FGGF-OH)
Polykaryocytes Mean Diameter (0.1 M peptide): 42 um
Polykaryocytes Per mm^2 (0.1 M peptide): 31 per mm^2
Polykaryocytes Mean Diameter (0.3 M peptide): 32 um
Polykaryocytes Per mm^2 (0.3 M peptide): 61 per mm^2
Polykaryocytes Mean Diameter (0.9 M peptide): 26 um
Polykaryocytes Per mm^2 (0.9 M peptide): 5 per mm^2
extent of fusion versus the concentration of peptide (FIG. 2), compared with z-PPG (RH9 + HIV-infected cells, 18 hours): Identical reults

From patent US4880779A, “Method of prevention or treatment of AIDS by inhibition of human immunodeficiency virus” (priority 1987, dated 1989)
